Most values lie at the floor of the assay. Slopes are relative: functional sequences can read slightly below zero.

This data set deals with Saccharomyces cerevisiae PS128 hsf1 delta, HSF1(1-493) fusion. Briefly: growth estimate (transactivation domain function in HSF1 fusion, heat-shock survival) (a.u. (slope of normalised read count over time)); higher = stronger growth at 37°C, i.e. more transactivation activity. To be noted: library: random library.
With VSQLSLLEFYLRLALPTQKA, the growth estimate is less than -0.25.
Then YGMVRGRRLISGDNGPNTVE, with less than -0.25; and RQQREKECALKCGKMSLVIC, with less than -0.25; and SLGLGSPVWRGLTEMIGSCC, with less than -0.25.
With SWVTWGGLTCGRPI, the growth estimate is less than -0.25.
In the case of GEKFETE it was less than -0.25.
As for HLKCVGRGPVMGSHGNRAND, the growth estimate is less than -0.25.
For the substance SMCSMGVIAERFMMG, the growth estimate is less than -0.25.
In the case of AIKIDTRKTKCWVVSAL it was -0.248; in that of EVCLFKHNVASNRGERAAES, less than -0.25; in that of GPNTAEVLISNLRSIKPNAP, less than -0.25.
Turning to KEGLK, the growth estimate was less than -0.25.
In the case of PATRWTGAEECILP it was less than -0.25.
In the case of LQACCVTRSQIS, the growth estimate is less than -0.25.
Then TSVPTRTLLRPDYLYDCLRN, with less than -0.25; and RLSRRFGAIRQP, with less than -0.25.
For the substance DVRSELERQVCRSDLEIAYG, the growth estimate was less than -0.25.
Take WTPTSVRIRICFSFN: the growth estimate is less than -0.25.
With PSE, the growth estimate is less than -0.25.
Then RFEVEALATSHICRGA, with less than -0.25; and PVVL, with less than -0.25; and VSLVSAGGRLQRRGAYRDVL, with less than -0.25.
Turning to RPPGSDVWEPCPSCGVDKSV, the growth estimate is less than -0.25.
With HCK, the growth estimate was less than -0.25.
For the substance ETELQL, the growth estimate was less than -0.25.
Turning to PNPFMVIVQLKVGITSCIRE, the growth estimate was less than -0.25.
For the substance QVVTGKGVESQRV, the growth estimate is less than -0.25.
Take DSGI: the growth estimate is less than -0.25.
Then RHSDGGSAS, with less than -0.25; and YKIARWPGIATGMLGFPVRL, with less than -0.25.
For NLCVNVGSGASLKGFNWFGA, the growth estimate was less than -0.25.
Then RRLRRSSPRVVYQFSQQEGT, with less than -0.25; and CRESNKCPPGGINKRTAEPR, with less than -0.25.
Then YTDFGRWCTEGAGAALHAEC, with less than -0.25; and GSRKRGPLS, with less than -0.25; and SKVTALVHFNKLG, with less than -0.25.
Take HAEQGANQTPASG: the growth estimate is less than -0.25.
In the case of SFAT it was less than -0.25; in that of GPRGTVGWGSDVRRPWSRSH, less than -0.25; in that of AALVQGQPGTVIGGMFGGFL, less than -0.25.
On to RQRR, for which the growth estimate was less than -0.25.
With DCIRVRVTKAERKLRGSALS, the growth estimate was less than -0.25.
Then YAGFLICSFSRLSLYGWASS, with less than -0.25; and MGGESASEGIVNAYVHTIAQ, with less than -0.25; and IGHAKKESGCVSPIGRHSST, with less than -0.25.
AIAASLHC: the growth estimate was less than -0.25.
For AVGPNPGAPPVSS, the growth estimate was less than -0.25.
With SKFNRASERGLYSRQSALHA, the growth estimate is less than -0.25.
For SYDRFSGLIIMICHGPASLG, the growth estimate is -0.246.
FAQGVHR: the growth estimate was less than -0.25.
As to LGMDGVFLSSTVGLSADSGG, the growth estimate was less than -0.25.
Regarding ESSVLY, the growth estimate is less than -0.25.
Then YQIIAPLGPVMTRVSSE, with less than -0.25; and RILTRLGYGVYIILPLGIRV, with less than -0.25.
In the case of PLSRSSNNAIG it was -0.246; in that of SFRDAFNFFLGRRFCLPANA, less than -0.25.
For the substance PTSSFAPWDLLM, the growth estimate was 0.715.
In the case of VWDRRHEQSGICT it was less than -0.25; in that of SCCL, less than -0.25.
In the case of LPNGRS it was less than -0.25.
Then RTQSLTRGGVVMRV, with less than -0.25; and LHWWSILVPRFAVSWCPQSF, with less than -0.25; and ALFN, with less than -0.25.
Consider CLPVQGACEPFLDVCTYPWS, for which the growth estimate is less than -0.25.
Consider PTLRGIAL, for which the growth estimate is less than -0.25.
In the case of LTI, the growth estimate was less than -0.25.
Turning to LRYYCP, the growth estimate is less than -0.25.
For the substance SGGLRFGPLMSDLFTAKKRQ, the growth estimate is less than -0.25.
In the case of FGYAVPQTLQKFLARPPRFA it was less than -0.25; in that of KTVGASLVNRLF, less than -0.25; in that of GSIVYLHQVRTPGPSVRSDS, less than -0.25.
Then GLTRE, with less than -0.25; and VIRHLTPTPSKRPPHVSVNG, with less than -0.25; and MRGLGPRSRGPGKFTLRGHL, with -0.245.
As for RSCDVNFIVLEAIGGLLFVG, the growth estimate was less than -0.25.
In the case of VIRSDCQF it was -0.0584; in that of SGYWRGVRWLPITGELRVNR, less than -0.25; in that of SLSCVAIGW, less than -0.25.
Then ITLCSSPPVRL, with less than -0.25.
Then LEVQRALRAIIQKRLLGSRV, with less than -0.25; and FQTGYSKYHDLSSPTFWCTG, with less than -0.25.
Regarding WYCTTWAANMEV, the growth estimate is less than -0.25.
Then VGSRISIRARTIT, with less than -0.25.
As to APTRNTAVSPFFCGVEYLVN, the growth estimate is less than -0.25.
In the case of CYKLTDFKLKDKEASIDT it was less than -0.25; in that of YWPVARMGSSYSVG, less than -0.25; in that of CLWRNRNMGRPP, less than -0.25.
For the substance PELRAATPPYYGPLDSESRA, the growth estimate is less than -0.25.
Consider RPPNDTSTMP, for which the growth estimate was less than -0.25.
Consider VRFRTFRTSGSSIYR, for which the growth estimate is less than -0.25.
In the case of GMGLLG it was less than -0.25.
As to NPEFQHGLMITRRGFSEARS, the growth estimate is less than -0.25.
Then RRLTGGAAEVRIAGRNGDPV, with less than -0.25; and VPSRRYVMRHRWITEIPIPT, with less than -0.25; and FIRPDLMRRSRDIVQGGNSP, with less than -0.25.
In the case of CSRVLRWYVSVEDRGCYKCL it was less than -0.25; in that of SEGGSEV, less than -0.25.
Then FSKVRTGRGRVGPPDSTSFR, with less than -0.25.
In the case of DSFDPR, the growth estimate was -0.231.
In the case of SICGVTSVSGPGRSRRWPHL it was less than -0.25; in that of RRTAPTNLLG, less than -0.25; in that of ILTGVI, less than -0.25.
In the case of LQPLPGMGQTMPLTTRSNVG, the growth estimate is less than -0.25.
Then RTVATAAR, with less than -0.25.
Then PAVGVTVVGASCLFIRVSRN, with less than -0.25; and LRLSWVGVSLPSSQTTIMLT, with less than -0.25.
As for TILDISTPPHRGLKVQVSPP, the growth estimate is less than -0.25.
For QSSFQKLAPLLLGSFDGHSA, the growth estimate was less than -0.25.
Regarding GGA, the growth estimate was less than -0.25.
As for SYSFGKLYPERFRLL, the growth estimate is less than -0.25.
Then PLDGDSQIELYDT, with less than -0.25; and SEQCVSPPPLHGFDLMTWLR, with -0.17; and WCHSCTKINYEYPAYCGAAR, with less than -0.25.
Then DTRSSRDPCGSGVFLLLVKA, with less than -0.25; and PTITA, with less than -0.25.

These data come from the supplement of paper PMC5949888.
